Counter-ions that a name gives are not always drawn. This is one part of the list. This data set is noisy: repeats of one test often differ as much as different tests do.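 Cells: ReNCell VM human fetal ventral-midbrain neural progenitors, differentiated mitogen-free. Blinded raters compared doublecortin-stained (early neurons) or tyrosine hydroxylase-stained (dopaminergic neurons) images with untreated wells, where 0 means no change. After repeats and both raters were averaged, compounds scoring 2 or above became hits for retesting.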
Columns and labels:
ReNCell VM [1] = experiment: neuronal differentiation score (DCX+ cell fraction vs untreated, manual image score) (score (-3 to 3)); higher = more neuronal differentiation; conditions: 2 uM, 2 weeks
ReNCell VM [2] = experiment: dopaminergic neuron differentiation score (TH+ cell fraction vs untreated, manual image score) (score (0 to 3)); higher = more TH+ dopaminergic neuron differentiation; conditions: 2 uM, 4 weeks, BDNF 10 ng/ml + GDNF 10 ng/ml

**Q.** With COc1cccc(-c2cc(=O)c3cc(OC)ccc3o2)c1 as the compound, how does the neuronal differentiation score (ReNCell VM [1]; library: Spectrum) read?
**A.** The neuronal differentiation score was inactive: 0.

**Q.** What about the “dopaminergic neuron differentiation score” value (ReNCell VM [2]; library: Spectrum) of the same compound?
**A.** Its value is inactive: 0.

**Q.** How did the neuronal differentiation score (ReNCell VM [1]; library: Spectrum) turn out when CCCCCCOC(=O)NC(=N)c1ccc(NCc2nc3cc(C(=O)N(CCC(=O)OCC)c4ccccn4)ccc3n2C)cc1 was run?
**A.** The neuronal differentiation score was inactive: 0.

**Q.** And the “dopaminergic neuron differentiation score” value (ReNCell VM [2]; library: Spectrum)?
**A.** The value was inactive: 0.

**Q.** Which results are given for O=C1c2c(O)ccc(O)c2C(=O)c2c(NCCNCCO)ccc(NCCNCCO)c21 [Mitoxantrone]?
**A.** neuronal differentiation score (ReNCell VM [1]; library: LOPAC): inactive: 0; dopaminergic neuron differentiation score (ReNCell VM [2]; library: LOPAC): inactive: 0

**Q.** C[C@@H]1CC[C@@]23CCC4(C)[C@@](C=CC5[C@@]6(C)CCC(=O)C(C)(C)C6CC[C@]54C)(OC2=O)C3[C@H]1C (stereo partly specified) was tested. Which neuronal differentiation score (ReNCell VM [1]; library: Spectrum) did it give?
**A.** The neuronal differentiation score was inactive: 0.

**Q.** And the “dopaminergic neuron differentiation score” value (ReNCell VM [2]; library: Spectrum)?
**A.** Its value is inactive: 0.

**Q.** What does the source list for CC(C)NCC(O)c1cc(O)cc(O)c1 (stereo unspecified) [Metaproterenol hemisulfate]?
**A.** neuronal differentiation score (ReNCell VM [1]; library: LOPAC): inactive: 0; dopaminergic neuron differentiation score (ReNCell VM [2]; library: LOPAC): inactive: 0

**Q.** Which results are given for C#C[C@]1(O)CC[C@H]2[C@@H]3CCc4cc(O)ccc4[C@H]3CC[C@@]21C?
**A.** neuronal differentiation score (ReNCell VM [1]; library: Spectrum): inactive: -1; dopaminergic neuron differentiation score (ReNCell VM [2]; library: Spectrum): inactive: 0

**Q.** Which neuronal differentiation score (ReNCell VM [1]; library: Tocriscreen) does the source give for Cl/C(=C\n1cncn1)c1ccc(Cl)cc1Cl [Loreclezole hydrochloride] here?
**A.** Its neuronal differentiation score is inactive: 0.

**Q.** What about the “dopaminergic neuron differentiation score” value (ReNCell VM [2]; library: Tocriscreen) of the same compound?
**A.** The value was inactive: 0.

**Q.** With CC(O)(P(=O)(O)O)P(=O)(O)O as the compound, how does the neuronal differentiation score (ReNCell VM [1]; library: Spectrum) read?
**A.** The neuronal differentiation score was inactive: 0.

**Q.** What about the “dopaminergic neuron differentiation score” value (ReNCell VM [2]; library: Spectrum) of the same compound?
**A.** Its value is inactive: 0.

**Q.** COc1cc(-c2ccc(=O)[nH]n2)ccc1OC(F)F was tested. Which neuronal differentiation score (ReNCell VM [1]; library: Spectrum) did it give?
**A.** The neuronal differentiation score was inactive: 0.

**Q.** What about the “dopaminergic neuron differentiation score” value (ReNCell VM [2]; library: Spectrum) of the same compound?
**A.** Its value is inactive: 0.

**Q.** What does the source list for CCCCOc1cc(C(=O)NCCN(CC)CC)c2ccccc2n1 [Dibucaine]?
**A.** neuronal differentiation score (ReNCell VM [1]; library: Prestwick): inactive: 0; dopaminergic neuron differentiation score (ReNCell VM [2]; library: Prestwick): inactive: 0

**Q.** Which neuronal differentiation score (ReNCell VM [1]; library: Prestwick) does the source give for Clc1ccc(C(Cn2ccnc2)OCc2csc3c(Cl)cccc23)c(Cl)c1 (stereo unspecified) [Sertaconazole nitrate] here?
**A.** The neuronal differentiation score was inactive: 0.

**Q.** What about the “dopaminergic neuron differentiation score” value (ReNCell VM [2]; library: Prestwick) of the same compound?
**A.** Its value is inactive: 0.

**Q.** What does the source list for CCCCCCCCCCCCCCCCn1cc[n+](Cc2ccccc2)c1C?
**A.** neuronal differentiation score (ReNCell VM [1]; library: Tocriscreen): inactive: 0; dopaminergic neuron differentiation score (ReNCell VM [2]; library: Tocriscreen): inactive: 0

**Q.** CC(C1=C(CCN(C)C)Cc2ccccc21)c1ccccn1 (stereo in doubt) [(S)-(+)-Dimethindene maleate] was tested. Which neuronal differentiation score (ReNCell VM [1]; library: Tocriscreen) did it give?
**A.** Its neuronal differentiation score is inactive: 0.

**Q.** And the “dopaminergic neuron differentiation score” value (ReNCell VM [2]; library: Tocriscreen)?
**A.** The value was inactive: 0.

**Q.** Which neuronal differentiation score (ReNCell VM [1]; library: Spectrum) does the source give for CN(C)CCC=C1c2ccccc2COc2ccccc21 here?
**A.** Its neuronal differentiation score is inactive: 0.

**Q.** What about the “dopaminergic neuron differentiation score” value (ReNCell VM [2]; library: Spectrum) of the same compound?
**A.** Its value is inactive: 0.

**Q.** With O=S(=O)(c1cccc2cnccc12)N1CCCNCC1 [Fasudil hydrochloride] as the compound, how does the neuronal differentiation score (ReNCell VM [1]; library: Tocriscreen) read?
**A.** The neuronal differentiation score was inactive: -2.

**Q.** What about the “dopaminergic neuron differentiation score” value (ReNCell VM [2]; library: Tocriscreen) of the same compound?
**A.** The value was inactive: 0.

**Q.** CCCn1c(=O)c2c(ncn2C)n(CCC)c1=O [1,3-Dipropyl-7-methylxanthine] was tested. Which neuronal differentiation score (ReNCell VM [1]; library: LOPAC) did it give?
**A.** Its neuronal differentiation score is inactive: 1.

**Q.** What about the “dopaminergic neuron differentiation score” value (ReNCell VM [2]; library: LOPAC) of the same compound?
**A.** Its value is inactive: 0.

**Q.** Which neuronal differentiation score (ReNCell VM [1]; library: Spectrum) does the source give for O=C1c2ccc(O)c(O)c2C(=O)c2c(O)ccc(O)c21 here?
**A.** The neuronal differentiation score was inactive: 1.

**Q.** And the “dopaminergic neuron differentiation score” value (ReNCell VM [2]; library: Spectrum)?
**A.** The value was inactive: 0.

**Q.** For CC(=O)OCCNC(=O)c1cccnc1 [N-[2-(Acetoxy)ethyl]-3-pyridinecarboxamide], which neuronal differentiation score (ReNCell VM [1]; library: Tocriscreen) is on record?
**A.** The neuronal differentiation score was inactive: 0.

**Q.** And the “dopaminergic neuron differentiation score” value (ReNCell VM [2]; library: Tocriscreen)?
**A.** Its value is inactive: 0.

**Q.** For Cc1ccc(S(=O)(=O)NCl)cc1, which neuronal differentiation score (ReNCell VM [1]; library: Spectrum) is on record?
**A.** The neuronal differentiation score was inactive: 0.

**Q.** What about the “dopaminergic neuron differentiation score” value (ReNCell VM [2]; library: Spectrum) of the same compound?
**A.** Its value is inactive: 0.

**Q.** Which results are given for O=C(O)c1cc(=O)[nH]c(=O)[nH]1?
**A.** neuronal differentiation score (ReNCell VM [1]; library: Spectrum): inactive: 0; dopaminergic neuron differentiation score (ReNCell VM [2]; library: Spectrum): inactive: 0

**Q.** Which neuronal differentiation score (ReNCell VM [1]; library: Spectrum) does the source give for CCOc1ccc(C(=O)c2ccc(OC)c(O)c2O)cc1 here?
**A.** Its neuronal differentiation score is inactive: 0.

**Q.** And the “dopaminergic neuron differentiation score” value (ReNCell VM [2]; library: Spectrum)?
**A.** Its value is inactive: 0.

**Q.** For CCN(CC)CCc1nc(-c2ccccc2)no1, which neuronal differentiation score (ReNCell VM [1]; library: Spectrum) is on record?
**A.** The neuronal differentiation score was inactive: 0.

**Q.** And the “dopaminergic neuron differentiation score” value (ReNCell VM [2]; library: Spectrum)?
**A.** Its value is inactive: 0.

**Q.** For COc1c2occc2c(OC)c2c(=O)cc(C)oc12 [Khellin], which neuronal differentiation score (ReNCell VM [1]; library: Prestwick) is on record?
**A.** The neuronal differentiation score was inactive: 0.

**Q.** What about the “dopaminergic neuron differentiation score” value (ReNCell VM [2]; library: Prestwick) of the same compound?
**A.** The value was inactive: 0.

**Q.** What does the source list for COc1ccc(CC2c3cc(OC)c(OC)cc3CC[N+]2(C)CCC(=O)OCCCCCOC(=O)CC[N+]2(C)CCc3cc(OC)c(OC)cc3C2Cc2ccc(OC)c(OC)c2)cc1OC (stereo unspecified) [Atracurium besylate]?
**A.** neuronal differentiation score (ReNCell VM [1]; library: Prestwick): inactive: 0; dopaminergic neuron differentiation score (ReNCell VM [2]; library: Prestwick): inactive: 0

**Q.** What does the source list for CCCCCCCCCCCCCCCC(=O)NCCO?
**A.** neuronal differentiation score (ReNCell VM [1]; library: Spectrum): inactive: 0; dopaminergic neuron differentiation score (ReNCell VM [2]; library: Spectrum): inactive: 0

**Q.** What does the source list for COc1cc2cc3c4cc(OC)c(OC)cc4cc[n+]3c(C)c2cc1OC?
**A.** neuronal differentiation score (ReNCell VM [1]; library: Spectrum): inactive: 0; dopaminergic neuron differentiation score (ReNCell VM [2]; library: Spectrum): inactive: 0

**Q.** CNCC[C@H](Oc1ccc(C(F)(F)F)cc1)c1ccccc1 [S-(+)-Fluoxetine hydrochloride] was tested. Which neuronal differentiation score (ReNCell VM [1]; library: LOPAC) did it give?
**A.** The neuronal differentiation score was inactive: 0.

**Q.** What about the “dopaminergic neuron differentiation score” value (ReNCell VM [2]; library: LOPAC) of the same compound?
**A.** The value was inactive: 0.

**Q.** What does the source list for C=C1CCC2C(CC2(C)C)C(=O)CCC1O (stereo unspecified)?
**A.** neuronal differentiation score (ReNCell VM [1]; library: Spectrum): inactive: 0; dopaminergic neuron differentiation score (ReNCell VM [2]; library: Spectrum): inactive: 0

**Q.** Which neuronal differentiation score (ReNCell VM [1]; library: Natural) does the source give for COC(=O)C1=CO[C@@H](O[C@@H]2O[C@H](CO)[C@@H](O)[C@H](O)[C@H]2O)[C@H]2[C@@H]1C(=O)C[C@@H]2C [verbenalin] here?
**A.** Its neuronal differentiation score is inactive: 0.

**Q.** What about the “dopaminergic neuron differentiation score” value (ReNCell VM [2]; library: Natural) of the same compound?
**A.** The value was inactive: 0.

**Q.** Which results are given for Clc1ccc(Nc2nnc(Cc3ccncc3)c3ccccc23)cc1 [Vatalanib]?
**A.** neuronal differentiation score (ReNCell VM [1]; library: Prestwick): inactive: 0; dopaminergic neuron differentiation score (ReNCell VM [2]; library: Prestwick): inactive: 0

**Q.** With CCCCCCCCCCCCCCCCCCNC(=O)OCC(COP(=O)([O-])OCC[n+]1ccsc1)OC (stereo unspecified) as the compound, how does the neuronal differentiation score (ReNCell VM [1]; library: LOPAC) read?
**A.** The neuronal differentiation score was inactive: 0.

**Q.** And the “dopaminergic neuron differentiation score” value (ReNCell VM [2]; library: LOPAC)?
**A.** The value was inactive: 0.

**Q.** With O=P(O)(O)C(O)(Cc1cccnc1)P(=O)(O)O as the compound, how does the neuronal differentiation score (ReNCell VM [1]; library: Spectrum) read?
**A.** Its neuronal differentiation score is inactive: 0.

**Q.** And the “dopaminergic neuron differentiation score” value (ReNCell VM [2]; library: Spectrum)?
**A.** The value was inactive: 0.

**Q.** How did the neuronal differentiation score (ReNCell VM [1]; library: Phytochemical) turn out when CN1[C@@H](CC(=O)c2ccccc2)CCC[C@H]1C[C@H](O)c1ccccc1 [Lobeline alpha (-) hydrochoride] was run?
**A.** Its neuronal differentiation score is inactive: 0.

**Q.** What about the “dopaminergic neuron differentiation score” value (ReNCell VM [2]; library: Phytochemical) of the same compound?
**A.** Its value is inactive: 0.

Source: the supplement of paper PMC4635364
